In patent US5340591A, “Method of producing a solid dispersion of the sparingly water-soluble drug, nilvadipine” (Fujisawa Pharmaceutical Co., Ltd., priority 1992, dated 1994):
≈ marks a conversion by molar mass, not a printed value.

Test: physchem
Conditions: distilled water

COC(=O)C1=C(C)NC(C)=C(C(=O)OC)C1c1ccccc1[N+](=O)[O-] [nifedipine bulk substance, nifedipine]
solubility: 12 µg/mL (≈ 34.6 µM)
